Measurements as given in patent publication US10662218B2, “Analogs of celastrol” (ERX Pharmaceuticals, Inc., priority 2015, dated 2020).
Several values for one entry are separate records, joined by “and”; a condition that tells them apart may be missing. Equal entries are not always repeated. The name of at least one read-out is uncertain.

System: C57BL/6 Diet Induced Obese (DIO) mice
Assay: Oral (P.O.) administration study in DIO mice: in vivo activity, body weights
Set-up: species or system mouse
Excerpt: The purpose of this study was to assess test articles in the Diet Induced Obese (DIO) mouse.
Male C57BL/6 Diet Induced Obese (DIO) mice were received from Taconic. Animals were acclimated to housing conditions for at least 1 week prior to vehicle acclimation dosing. Animals were acclimated to oral gavage dosing with vehicle once daily for Days 11 through 14 of the predose phase.
At initiation of dosing, animals were 21 to 22 weeks old, and their body weights ranged from 29.8 to 40.1 g.
Dose formulations were administered by oral gavage once daily for 10 days at a dose volume of 2 mL/kg. Doses were based on the most recently recorded scheduled body weight.
Body weights were recorded daily on Days 11 through 14 of the predose phase. Body weights were collected for all animals daily during the dosing phase prior to dosing.
Descriptive statistics (n, mean, standard error of the mean, standard deviation) were completed. Additionally, one-way analysis of variance followed by Dunnett's post-hoc test were performed on body weight (cumulative body weight change), glucose (glucose percent change), and food consumption (cumulative food consumption). Area under the curve (for body weight, cumulative body weight change, daily body weight change, and food consumption) was computed for treatment groups. An appropriate comparison test, such as one-way analysis of variance and Dunnett's, was performed on the group means for the area under the curve computations. Any additional statistical analysis and interpretation of the results were the responsibility of the sponsor.

[1] = individual male DIO mice, 2 mg/kg, dosing day 9 (DSNG 9), one line per animal
[2] = individual male DIO mice, 2 mg/kg, dosing day 10 (DSNG 10), one line per animal
[3] = individual male DIO mice, 2 mg/kg, dosing day 11 (DSNG 11), one line per animal
[4] = individual male DIO mice, 2 mg/kg, dosing phase day 3
[5] = individual male DIO mice, 2 mg/kg, dosing phase day 4
[6] = individual male DIO mice, 2 mg/kg, dosing phase day 5
[7] = individual male DIO mice, 2 mg/kg, dosing phase day 6
[8] = individual male DIO mice, 2 mg/kg, dosing phase day 7
[9] = individual male DIO mice, 2 mg/kg, dosing phase day 8
[10] = individual male DIO mice, 2 mg/kg, dosing phase day 9
[11] = individual male DIO mice, 2 mg/kg, dosing phase day 10
[12] = individual male DIO mice, 2 mg/kg, dosing phase day 11

Row | SMILES | Individual Body Weight, DSNG 9 [1] | Individual Body Weight, DSNG 10 [2] | Individual Body Weight, DSNG 11 [3] | Individual Body Weight, DSNG 3 [4] | Individual Body Weight, DSNG 4 [5] | Individual Body Weight, DSNG 5 [6] | Individual Body Weight, DSNG 6 [7] | Individual Body Weight, DSNG 7 [8] | Individual Body Weight, DSNG 8 [9] | Individual Body Weight, DSNG 9 [10] | Individual Body Weight, DSNG 10 [11] | Individual Body Weight, DSNG 11 [12] | also measured
1 | CC1=C(O)C(=O)C=C2C1=CC=C1[C@@]2(C)CC[C@@]2(C)[C@@H]3C[C@](C)(CN(C)C)CC[C@]3(C)CC[C@]12C [ERX1060] | 31.1 g and 31.6 g and 29.8 g and 37.5 g and 35.7 g | 30.6 g and 32.4 g and 30.8 g and 38.0 g and 35.8 g | 31.5 g and 32.7 g and 32.0 g and 38.9 g and 36.8 g | – | – | – | – | – | – | – | – | – | Individual Body Weight, DSNG 3 (2 mg/kg, male DIO mice, dosing phase day 3, one line per animal): 32.7 g and 34.6 g and 31.3 g and 37.8 g and 35.7 g; Individual Body Weight, DSNG 4 (2 mg/kg, male DIO mice, dosing phase day 4, one line per animal): 33.4 g and 33.1 g and 30.9 g and 38.0 g and 35.0 g; Individual Body Weight, DSNG 5 (2 mg/kg, male DIO mice, dosing phase day 5, one line per animal): 33.3 g and 33.5 g and 31.2 g and 37.8 g and 35.4 g; Individual Body Weight, DSNG 6 (2 mg/kg, male DIO mice, dosing phase day 6, one line per animal): 33.6 g and 32.5 g and 31.5 g and 38.1 g and 36.4 g; Individual Body Weight, DSNG 7 (2 mg/kg, male DIO mice, dosing phase day 7, one line per animal): 32.2 g (2×) and 30.7 g and 37.3 g and 36.4 g; Individual Body Weight, DSNG 8 (2 mg/kg, male DIO mice, dosing phase day 8, one line per animal): 32.0 g and 31.9 g and 30.2 g and 36.5 g and 35.8 g
2 | CC1=C(O)C(=O)C=C2C1=CC=C1[C@@]2(C)CC[C@@]2(C)[C@@H]3C[C@](C)(N)CC[C@]3(C)CC[C@]12C [ERX1077] | 32.1 g and 31.5 g and 33.4 g (2×) and 37.0 g | 31.9 g and 31.7 g and 33.4 g and 37.7 g and 34.1 g | 31.9 g and 31.3 g and 33.3 g and 38.1 g and 34.7 g | 31.3 g and 32.4 g and 34.3 g and 37.7 g and 34.4 g | 31.3 g and 31.5 g and 33.6 g and 37.6 g and 34.7 g | 31.1 g and 31.7 g and 33.4 g and 37.6 g and 34.7 g | 31.9 g and 32.3 g and 33.1 g and 38.4 g and 34.1 g | 31.1 g and 31.3 g and 33.0 g and 37.3 g and 34.0 g | 32.0 g and 32.1 g and 33.1 g and 37.6 g and 33.7 g | – | – | – | –
3 | CCOC1=C(C)C2=CC=C3[C@@](C)(CC[C@@]4(C)[C@@H]5C[C@](C)(C(N)=O)CC[C@]5(C)CC[C@]34C)C2=CC1=O [ERX1107] | 30.0 g and 34.6 g and 34.3 g and 29.6 g and 32.7 g | 30.0 g and 35.2 g and 34.5 g and 28.8 g and 33.6 g | 30.1 g and 35.4 g and 34.7 g and 30.5 g and 33.0 g | 31.9 g and 35.6 g and 35.0 g and 31.0 g and 33.7 g | 32.0 g and 35.4 g and 34.5 g and 30.3 g and 33.9 g | 32.0 g and 35.2 g and 34.7 g and 29.6 g and 33.9 g | 31.4 g and 34.7 g (2×) and 29.5 g and 33.3 g | 31.2 g and 34.6 g and 34.7 g and 28.7 g and 33.0 g | 30.8 g and 34.9 g and 33.9 g and 29.0 g and 32.8 g | – | – | – | –
4 | CC(=O)N(C)C[C@]1(C)CC[C@]2(C)CC[C@]3(C)C4=CC=C5C(=CC(=O)C(O)=C5C)[C@]4(C)CC[C@@]3(C)[C@@H]2C1 [ERX1149] | – | – | – | 31.2 g and 35.0 g and 39.5 g and 31.1 g and 33.8 g | 31.0 g and 35.5 g and 39.6 g and 31.1 g and 32.7 g | 30.8 g and 35.1 g and 39.0 g and 30.1 g and 32.5 g | 30.6 g and 34.3 g and 38.9 g and 29.4 g and 32.2 g | 30.3 g and 34.4 g and 38.8 g and 29.0 g and 31.5 g | 30.5 g and 34.5 g and 38.9 g and 29.6 g and 32.8 g | – | – | – | Individual Body Weight, DSNG 9 (Group 9/M (ERX1149 2 mg/kg), male DIO mice, individual animals 41-45, dosing phase Day 9): 31.1 g and 34.4 g and 38.9 g and 28.9 g and 32.0 g; Individual Body Weight, DSNG 10 (Group 9/M (ERX1149 2 mg/kg), male DIO mice, individual animals 41-45, dosing phase Day 10): 31.8 g and 34.3 g and 38.6 g and 29.9 g and 32.8 g; Individual Body Weight, DSNG 11 (Group 9/M (ERX1149 2 mg/kg), male DIO mice, individual animals 41-45, dosing phase Day 11): 30.7 g and 36.1 g and 39.1 g and 29.3 g and 32.6 g
5 | CC(=O)N[C@]1(C)CC[C@]2(C)CC[C@]3(C)C4=CC=C5C(=CC(=O)C(O)=C5C)[C@]4(C)CC[C@@]3(C)[C@@H]2C1 [ERX1168] | – | – | – | – | – | – | – | – | – | 29.5 g and 34.1 g and 30.4 g and 27.8 g and 28.3 g | 28.3 g and 34.6 g and 30.7 g and 27.2 g and 25.4 g | 28.9 g and 34.0 g and 30.9 g and 26.0 g and 26.3 g | –
6 | CC1=C(O)C(=O)C=C2C1=CC=C1[C@@]2(C)CC[C@@]2(C)[C@@H]3C[C@](C)(N(C)C)CC[C@]3(C)CC[C@]12C [ERX1177] | – | – | – | – | – | – | – | – | – | 31.0 g and 29.4 g and 33.3 g and 38.1 g and 33.4 g | 31.2 g and 29.5 g and 33.8 g and 37.9 g and 33.0 g | 31.3 g and 28.8 g and 34.0 g and 38.2 g and 32.6 g | –
